The other results are listed elsewhere or left out.
Experiments:
Assay in all cases: log2 fold change, soluble protein after heating vs DMSO (PISA); higher = thermal stabilisation; K562 lysate, 10 uM; active = over 0.2 and 3.5 SD of the protein, either way, in both replicates (recomputed)
[1] = compound: C1=CC=C(C=C1)[C@H](COC2=CC3=C(C=C2)NC(=O)N3)NC(=O)C4=CC=CN(C4=O)CC5=CC(=C(C=C5)F)F
Procedure, shortened: (§1)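 Log-two fold change in thermal stability relative to solvent controls is reported from duplicates. For each sample, crude K562 extract from dounce-homogenised pellets in PBS pH 7.4 with 1 mM MgCl2, at 1 mg/mL protein, was treated with 10 μM compound for 30 min. Aliquots heated for 3 min across 48°C-58°C were pooled, brought to 0.5% NP-40 at 4°C and cleared at 21,000xg for 90 min. The supernatant was quantified by TMTpro 16plex LC-MS/MS with channel sums equalised.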

The chains behind the UniProt entries cited, without tags or fusion partners. Where a name states a change or a piece, a line headed by the entry shows the natural chain unless it says otherwise.
UniProt P49247: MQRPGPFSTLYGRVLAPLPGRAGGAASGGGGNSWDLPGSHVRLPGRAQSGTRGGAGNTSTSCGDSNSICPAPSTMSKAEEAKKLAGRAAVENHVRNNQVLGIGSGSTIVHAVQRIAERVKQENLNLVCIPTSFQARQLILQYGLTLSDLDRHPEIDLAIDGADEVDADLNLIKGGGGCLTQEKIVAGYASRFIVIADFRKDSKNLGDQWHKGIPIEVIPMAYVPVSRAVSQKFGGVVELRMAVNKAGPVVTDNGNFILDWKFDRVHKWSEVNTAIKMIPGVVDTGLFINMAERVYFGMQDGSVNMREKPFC
UniProt Q9P0P0: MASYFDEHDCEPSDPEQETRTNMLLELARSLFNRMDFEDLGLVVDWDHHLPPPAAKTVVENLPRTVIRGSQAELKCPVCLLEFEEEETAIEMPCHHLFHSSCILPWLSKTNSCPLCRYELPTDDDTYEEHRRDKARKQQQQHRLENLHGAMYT
UniProt Q5VTR2, whole entry, looked up: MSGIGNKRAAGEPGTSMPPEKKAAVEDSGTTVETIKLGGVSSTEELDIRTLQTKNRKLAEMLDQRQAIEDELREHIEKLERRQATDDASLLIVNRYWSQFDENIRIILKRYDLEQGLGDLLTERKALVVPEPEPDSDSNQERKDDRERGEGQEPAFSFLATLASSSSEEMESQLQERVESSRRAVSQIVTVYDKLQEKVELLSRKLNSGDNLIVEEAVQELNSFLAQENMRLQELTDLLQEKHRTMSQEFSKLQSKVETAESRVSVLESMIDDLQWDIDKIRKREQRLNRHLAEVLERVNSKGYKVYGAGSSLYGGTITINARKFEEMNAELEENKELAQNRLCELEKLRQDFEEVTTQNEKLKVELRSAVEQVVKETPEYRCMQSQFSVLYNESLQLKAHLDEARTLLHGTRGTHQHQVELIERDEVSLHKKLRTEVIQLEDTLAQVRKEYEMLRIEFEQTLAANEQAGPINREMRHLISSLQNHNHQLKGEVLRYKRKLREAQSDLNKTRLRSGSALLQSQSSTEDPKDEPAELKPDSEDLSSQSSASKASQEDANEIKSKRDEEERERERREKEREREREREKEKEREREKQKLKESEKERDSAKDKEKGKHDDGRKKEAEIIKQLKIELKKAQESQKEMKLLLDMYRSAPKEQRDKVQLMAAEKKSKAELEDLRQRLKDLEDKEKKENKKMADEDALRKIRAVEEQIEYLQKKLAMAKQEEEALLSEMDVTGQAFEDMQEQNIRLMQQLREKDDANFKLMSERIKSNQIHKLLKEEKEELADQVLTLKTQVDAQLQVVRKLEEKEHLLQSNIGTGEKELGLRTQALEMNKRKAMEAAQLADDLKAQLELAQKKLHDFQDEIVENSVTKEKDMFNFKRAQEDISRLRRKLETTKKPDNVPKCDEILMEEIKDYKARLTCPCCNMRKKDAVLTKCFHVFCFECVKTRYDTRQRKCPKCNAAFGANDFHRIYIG
UniProt Q9NPQ8: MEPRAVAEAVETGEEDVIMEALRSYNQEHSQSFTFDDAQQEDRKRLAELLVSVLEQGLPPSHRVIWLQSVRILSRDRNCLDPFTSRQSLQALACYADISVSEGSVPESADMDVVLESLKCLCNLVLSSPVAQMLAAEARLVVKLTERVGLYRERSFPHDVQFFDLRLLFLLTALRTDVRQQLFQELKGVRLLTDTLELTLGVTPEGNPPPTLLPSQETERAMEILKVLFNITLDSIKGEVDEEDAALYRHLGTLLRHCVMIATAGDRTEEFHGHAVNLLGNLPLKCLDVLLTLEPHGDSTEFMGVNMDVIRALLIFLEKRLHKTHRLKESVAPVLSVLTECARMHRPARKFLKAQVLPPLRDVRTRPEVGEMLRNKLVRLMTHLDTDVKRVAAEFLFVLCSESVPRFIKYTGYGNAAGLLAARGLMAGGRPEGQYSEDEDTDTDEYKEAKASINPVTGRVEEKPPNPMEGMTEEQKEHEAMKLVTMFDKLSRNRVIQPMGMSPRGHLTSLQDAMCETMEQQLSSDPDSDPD
UniProt Q9H7B2: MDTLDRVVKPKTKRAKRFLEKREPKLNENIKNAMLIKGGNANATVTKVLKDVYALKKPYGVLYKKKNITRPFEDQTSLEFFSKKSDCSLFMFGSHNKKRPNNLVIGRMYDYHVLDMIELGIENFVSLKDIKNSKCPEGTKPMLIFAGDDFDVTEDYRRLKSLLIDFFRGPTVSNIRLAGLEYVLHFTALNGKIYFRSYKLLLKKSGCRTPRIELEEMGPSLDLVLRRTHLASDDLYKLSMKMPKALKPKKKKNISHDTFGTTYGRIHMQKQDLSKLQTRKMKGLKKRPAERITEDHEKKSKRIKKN
UniProt Q969K3: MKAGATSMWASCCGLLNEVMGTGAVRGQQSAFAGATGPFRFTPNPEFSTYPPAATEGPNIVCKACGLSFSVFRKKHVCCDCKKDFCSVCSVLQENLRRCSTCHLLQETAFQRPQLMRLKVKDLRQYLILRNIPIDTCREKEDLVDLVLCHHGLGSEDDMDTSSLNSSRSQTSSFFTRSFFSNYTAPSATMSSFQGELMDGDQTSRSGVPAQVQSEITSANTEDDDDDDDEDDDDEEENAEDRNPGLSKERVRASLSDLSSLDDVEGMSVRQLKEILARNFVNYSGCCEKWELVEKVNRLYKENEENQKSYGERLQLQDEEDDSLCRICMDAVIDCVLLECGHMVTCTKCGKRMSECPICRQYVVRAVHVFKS
UniProt Q8IUF8: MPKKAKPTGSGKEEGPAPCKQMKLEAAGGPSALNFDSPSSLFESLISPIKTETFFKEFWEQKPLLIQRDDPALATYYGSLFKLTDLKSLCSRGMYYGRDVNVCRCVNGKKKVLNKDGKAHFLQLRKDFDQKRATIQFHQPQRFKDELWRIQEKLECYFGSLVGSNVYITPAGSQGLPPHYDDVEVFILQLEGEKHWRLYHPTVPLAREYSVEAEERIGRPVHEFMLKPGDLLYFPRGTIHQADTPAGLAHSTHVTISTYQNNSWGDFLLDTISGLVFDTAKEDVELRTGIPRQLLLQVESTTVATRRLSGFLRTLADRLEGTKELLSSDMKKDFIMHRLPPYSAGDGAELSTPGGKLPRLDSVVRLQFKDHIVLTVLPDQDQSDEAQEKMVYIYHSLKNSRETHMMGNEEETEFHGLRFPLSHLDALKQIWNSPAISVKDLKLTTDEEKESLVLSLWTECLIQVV
UniProt Q8NC42: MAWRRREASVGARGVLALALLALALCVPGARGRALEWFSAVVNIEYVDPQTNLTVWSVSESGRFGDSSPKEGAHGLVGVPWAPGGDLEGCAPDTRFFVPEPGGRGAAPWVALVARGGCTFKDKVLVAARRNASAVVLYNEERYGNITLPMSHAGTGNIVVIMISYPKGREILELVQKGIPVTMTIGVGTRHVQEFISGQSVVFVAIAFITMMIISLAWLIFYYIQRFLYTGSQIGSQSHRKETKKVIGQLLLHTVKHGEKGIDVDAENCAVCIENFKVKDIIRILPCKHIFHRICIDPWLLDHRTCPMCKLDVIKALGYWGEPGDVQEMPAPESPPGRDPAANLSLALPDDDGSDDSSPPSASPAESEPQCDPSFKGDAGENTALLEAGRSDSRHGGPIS
UniProt P61586, whole entry, looked up: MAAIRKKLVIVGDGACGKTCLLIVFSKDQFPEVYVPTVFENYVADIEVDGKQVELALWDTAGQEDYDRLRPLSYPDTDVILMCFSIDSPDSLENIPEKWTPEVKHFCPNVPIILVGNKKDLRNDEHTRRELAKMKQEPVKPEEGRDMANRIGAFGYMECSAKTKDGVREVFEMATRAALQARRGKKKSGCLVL
UniProt Q9BVS4: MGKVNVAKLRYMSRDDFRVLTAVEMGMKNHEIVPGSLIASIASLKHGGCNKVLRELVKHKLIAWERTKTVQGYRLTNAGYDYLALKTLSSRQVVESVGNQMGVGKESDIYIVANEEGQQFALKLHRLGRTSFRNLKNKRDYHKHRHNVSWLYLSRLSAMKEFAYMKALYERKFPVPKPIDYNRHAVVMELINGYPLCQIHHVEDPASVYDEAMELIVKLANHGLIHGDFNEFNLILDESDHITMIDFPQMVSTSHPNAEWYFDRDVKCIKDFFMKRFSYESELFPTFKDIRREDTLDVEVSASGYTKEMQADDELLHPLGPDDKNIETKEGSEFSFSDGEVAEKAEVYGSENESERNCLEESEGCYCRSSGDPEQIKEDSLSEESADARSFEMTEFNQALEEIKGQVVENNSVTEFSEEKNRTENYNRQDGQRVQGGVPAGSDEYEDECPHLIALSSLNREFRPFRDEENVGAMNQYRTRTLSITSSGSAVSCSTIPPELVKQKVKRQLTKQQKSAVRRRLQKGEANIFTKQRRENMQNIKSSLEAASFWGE
UniProt Q9UBF6, whole entry, looked up: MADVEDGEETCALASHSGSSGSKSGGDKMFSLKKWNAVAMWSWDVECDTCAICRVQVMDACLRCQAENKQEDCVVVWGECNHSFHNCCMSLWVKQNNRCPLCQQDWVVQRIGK
UniProt Q06587: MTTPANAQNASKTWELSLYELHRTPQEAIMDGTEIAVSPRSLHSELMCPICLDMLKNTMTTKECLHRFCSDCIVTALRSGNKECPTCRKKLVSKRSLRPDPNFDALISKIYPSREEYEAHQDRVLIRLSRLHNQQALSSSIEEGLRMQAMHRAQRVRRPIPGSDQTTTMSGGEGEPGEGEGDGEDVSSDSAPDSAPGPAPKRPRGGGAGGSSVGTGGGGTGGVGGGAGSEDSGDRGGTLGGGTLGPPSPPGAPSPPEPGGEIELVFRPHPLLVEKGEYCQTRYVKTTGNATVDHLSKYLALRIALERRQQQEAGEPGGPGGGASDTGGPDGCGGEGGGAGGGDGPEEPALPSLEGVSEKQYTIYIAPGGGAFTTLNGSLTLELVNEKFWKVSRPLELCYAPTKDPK
UniProt Q9NWS8: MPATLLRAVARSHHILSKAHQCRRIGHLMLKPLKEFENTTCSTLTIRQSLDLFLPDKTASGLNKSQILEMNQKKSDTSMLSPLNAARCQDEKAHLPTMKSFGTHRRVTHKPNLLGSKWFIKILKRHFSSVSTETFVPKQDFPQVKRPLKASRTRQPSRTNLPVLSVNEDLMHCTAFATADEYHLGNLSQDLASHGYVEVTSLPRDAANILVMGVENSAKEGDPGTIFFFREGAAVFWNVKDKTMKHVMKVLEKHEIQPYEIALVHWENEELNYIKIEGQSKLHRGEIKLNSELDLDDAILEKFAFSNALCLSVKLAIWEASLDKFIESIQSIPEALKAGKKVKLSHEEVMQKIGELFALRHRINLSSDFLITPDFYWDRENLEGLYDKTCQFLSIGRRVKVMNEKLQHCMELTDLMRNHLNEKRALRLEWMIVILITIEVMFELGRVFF
UniProt P52758: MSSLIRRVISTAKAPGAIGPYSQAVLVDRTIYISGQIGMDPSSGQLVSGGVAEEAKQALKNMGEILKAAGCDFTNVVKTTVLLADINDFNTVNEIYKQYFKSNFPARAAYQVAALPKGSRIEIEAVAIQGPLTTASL
UniProt Q8ND24: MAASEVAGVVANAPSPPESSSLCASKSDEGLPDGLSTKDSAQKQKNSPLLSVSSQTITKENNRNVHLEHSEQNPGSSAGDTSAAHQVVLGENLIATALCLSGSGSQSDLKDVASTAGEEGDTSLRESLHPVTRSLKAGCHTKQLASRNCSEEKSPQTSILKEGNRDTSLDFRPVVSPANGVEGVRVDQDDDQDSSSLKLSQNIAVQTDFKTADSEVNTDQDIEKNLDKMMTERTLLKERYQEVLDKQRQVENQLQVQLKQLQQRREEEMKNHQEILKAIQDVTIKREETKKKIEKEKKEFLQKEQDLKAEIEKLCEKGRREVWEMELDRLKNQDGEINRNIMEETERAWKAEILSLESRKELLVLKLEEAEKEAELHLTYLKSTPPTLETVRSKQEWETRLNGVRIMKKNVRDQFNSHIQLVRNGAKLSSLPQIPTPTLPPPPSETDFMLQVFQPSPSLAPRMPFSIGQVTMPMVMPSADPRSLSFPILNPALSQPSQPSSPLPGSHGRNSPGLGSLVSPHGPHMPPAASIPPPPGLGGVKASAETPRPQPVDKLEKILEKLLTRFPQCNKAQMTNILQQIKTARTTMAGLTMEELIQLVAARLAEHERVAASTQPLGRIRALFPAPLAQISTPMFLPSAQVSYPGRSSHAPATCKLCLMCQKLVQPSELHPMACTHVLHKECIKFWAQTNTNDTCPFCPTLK
UniProt O15541: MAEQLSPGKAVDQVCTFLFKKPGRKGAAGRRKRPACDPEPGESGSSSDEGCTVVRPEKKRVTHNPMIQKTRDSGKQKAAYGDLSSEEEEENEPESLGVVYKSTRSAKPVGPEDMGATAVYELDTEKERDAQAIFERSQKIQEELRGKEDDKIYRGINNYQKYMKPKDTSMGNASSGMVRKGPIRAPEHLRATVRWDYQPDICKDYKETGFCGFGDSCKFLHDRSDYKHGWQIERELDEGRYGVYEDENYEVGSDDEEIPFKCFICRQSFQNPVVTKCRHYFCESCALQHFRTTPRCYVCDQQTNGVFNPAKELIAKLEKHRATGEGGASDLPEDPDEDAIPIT

[2] = compound: CC1=C(SC2=C1C(=N[C@H](C3=NN=C(N32)C)CC(=O)N)C4=CC=C(C=C4)Cl)C
Procedure, shortened: as §1

[3] = compound: CC1=C2C(=CC=C1)N=C(N(C2=O)C3=CC=CC=C3C)CN4C=NC5=C(N=CN=C54)N
Procedure, shortened: as §1

[4] = compound: Cc1sc2c(c1C)C(c1ccc(Cl)cc1)=N[C@@H](CC(=O)OC(C)(C)C)c1nnc(C)n1-2
Procedure, shortened: as §1

[5] = compound: c1ccc([C@@H]2C[C@H]2NC2CCNCC2)cc1
Procedure, shortened: as §1

Measured: log2 fold change

RPIA (UniProt P49247)
inactive: [1] -0.037 | [2] 0.018 | [3] -0.005 | [4] -0.042 | [5] 0

RNF181 (UniProt Q9P0P0)
inactive: [1] 0.03 | [2] -0.145 | [3] -0.031 | [4] 0.022 | [5] 0.066

RPL17 isoform 3 (UniProt P18621)
inactive: [1] 0.066 | [2] -0.005 | [3] -0.013 | [4] 0.027 | [5] 0.036

RPL10 (UniProt F8W7C6)
inactive: [1] -0.026 | [2] 0.078 | [3] 0.025 | [4] -0.132 | [5] -0.092

RNF20 (UniProt Q5VTR2)
inactive: [1] -0.005 | [2] -0.01 | [3] 0.003 | [4] 0.001 | [5] 0.011

RPL28 (UniProt P46779)
inactive: [1] 0.042 | [2] -0.02 | [3] 0.001 | [4] -0.008 | [5] 0.041

2 consecutive entries out of the list so far:
RPL17 isoform 3 (UniProt P18621)
inactive: [1] 0.066 | [2] -0.005 | [3] -0.013 | [4] 0.027 | [5] 0.036

RPL10 (UniProt F8W7C6)
inactive: [1] -0.026 | [2] 0.078 | [3] 0.025 | [4] -0.132 | [5] -0.092

Continued.

RIC8A (UniProt Q9NPQ8)
inactive: [1] -0.047 | [2] 0.012 | [3] 0.019 | [4] 0.016 | [5] 0.01

RPF2 (UniProt Q9H7B2)
inactive: [1] 0.092 | [2] -0.124 | [3] 0.089 | [4] 0.013 | [5] 0.104

RNF34 isoform 2 (UniProt Q969K3)
inactive: [1] 0.216 | [2] -0.018 | [3] -0.037 | [4] 0.032 | [5] -0.069

RPL35 (UniProt P42766)
inactive: [1] 0.012 | [2] 0.006 | [3] -0.026 | [4] 0.014 | [5] -0.031

RPL24 (UniProt P83731)
inactive: [1] 0.066 | [2] -0.009 | [3] 0.016 | [4] 0 | [5] -0.02

ROS1 (UniProt P08922)
inactive: [1] -0.047 | [2] 0.048 | [3] 0.058 | [4] -0.042 | [5] -0.178

RIOX2 (UniProt Q8IUF8)
inactive: [1] 0.024 | [2] 0.03 | [3] -0.024 | [4] -0.018 | [5] 0.111

RNF149 (UniProt Q8NC42)
inactive: [1] -0.015 | [2] 0.022 | [3] -0.138 | [4] -0.081 | [5] 0

RHOA (UniProt P61586)
inactive: [1] 0.177 | [2] 0.06 | [3] 0.038 | [4] 0.02 | [5] 0.07

RPL10A (UniProt P62906)
inactive: [1] 0.001 | [2] 0.028 | [3] -0.02 | [4] 0.019 | [5] -0.001

RIOK2 (UniProt Q9BVS4)
inactive: [1] 0.002 | [2] -0.018 | [3] 0.009 | [4] -0.023 | [5] -0.022

RNF7 (UniProt Q9UBF6)
inactive: [1] -0.008 | [2] -0.008 | [3] 0.043 | [4] 0.046 | [5] -0.274

RING1 (UniProt Q06587)
inactive: [1] 0.004 | [2] 0.025 | [3] 0.008 | [4] 0.032 | [5] -0.021

RPL15 (UniProt P61313)
inactive: [1] 0.039 | [2] -0.019 | [3] -0.001 | [4] -0.007 | [5] 0.006

RMND1 (UniProt Q9NWS8)
inactive: [1] -0.028 | [2] 0.074 | [3] 0.001 | [4] 0.053 | [5] 0.004

RPL21 (UniProt P46778)
inactive: [1] 0.007 | [2] 0.012 | [3] 0.009 | [4] 0.023 | [5] -0.049

RIDA (UniProt P52758)
inactive: [1] 0.025 | [2] -0.091 | [3] -0.01 | [4] -0.029 | [5] 0.012

RNF214 (UniProt Q8ND24)
inactive: [1] -0.038 | [2] 0 | [3] 0.002 | [4] 0.077 | [5] 0.016

RNF113A (UniProt O15541)
inactive: [1] 0.047 | [2] -0.022 | [3] -0.018 | [4] -0.065 | [5] -0.066

Source: the supplement of paper PMC10849652
